{"source": "PubChem BioAssay (Tox21)", "key": {"[1]": {"assay": "cAMP Responsive Elements (CRE) small molecule antagonists, cell-based qHTS assay: qHTS cell viability counter screen (AID 2060913); also: nearly all actives have a fitted effect of over 40% in size", "settings": "CRE-bla HEK293T viability, CellTiter-Glo luminescence, 5 h; at 42.5 µM (top of the series)", "procedure,_shortened": "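Viability of NKH477-stimulated (0.25 uM final) CRE-bla HEK293T cells is measured by CellTiter-Glo luminescence following 3 hrs compound exposure at 37 C.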"}, "[2]": {"assay": "cAMP Responsive Elements (CRE) small molecule agonists, cell-based qHTS assay: qHTS cell viability counter screen (AID 2060914); also: nearly all actives have a fitted effect of over 50% in size", "settings": "CRE-bla HEK293T viability, CellTiter-Glo luminescence, 5 h; at 42.5 µM (top of the series)", "procedure,_shortened": "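Cells are seeded and incubated 18 h, treated with compounds in DMSO for 3 h, read for the bla reporter, then given CellTiter-Glo; luminescence is measured after 30 min at room temperature.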"}}, "note": "Most of the hits are listed elsewhere, so they are rarer here than in the full data. Records with an inconclusive call do not appear. Calls of active or inactive are those of the source. Calls follow the shape of the dose curve; as a rule, active = well fitted cell-killing curve with a large enough effect in the repeat runs; inconclusive = weak or mixed curves, or effect the other way; inactive = flat fitted curve, though single readings scatter. % is scaled to controls: 0 for no effect and ±100 for the full control effect.", "data": [{"compound": "CC(C)(C)c1ccc(O)cc1", "values": [{"measurement": "viability change, negative = cytotoxic", "setting": "[1]", "result": "inactive: 0.0117%"}, {"measurement": "activity change, negative = cytotoxicity", "setting": "[2]", "result": "inactive: -5.58%"}]}]}
